About 140 (6.1%) of roughly 2,300 compounds were called active. About 18% were inconclusive and are not listed. Calls follow the shape of the dose curve; as a rule, active = well fitted activation curve with a large enough effect; inconclusive = small, poorly fitted or top-dose-only effect; inactive = flat fitted curve, though single readings scatter. The entries are a selection whose mix differs from that of the whole data set.
Potency is read from the fitted curve at half-maximal effect.

Sequences of proteins named here, by UniProt entry; tags and fusion partners are left off.
UniProt P14416, whole entry, looked up: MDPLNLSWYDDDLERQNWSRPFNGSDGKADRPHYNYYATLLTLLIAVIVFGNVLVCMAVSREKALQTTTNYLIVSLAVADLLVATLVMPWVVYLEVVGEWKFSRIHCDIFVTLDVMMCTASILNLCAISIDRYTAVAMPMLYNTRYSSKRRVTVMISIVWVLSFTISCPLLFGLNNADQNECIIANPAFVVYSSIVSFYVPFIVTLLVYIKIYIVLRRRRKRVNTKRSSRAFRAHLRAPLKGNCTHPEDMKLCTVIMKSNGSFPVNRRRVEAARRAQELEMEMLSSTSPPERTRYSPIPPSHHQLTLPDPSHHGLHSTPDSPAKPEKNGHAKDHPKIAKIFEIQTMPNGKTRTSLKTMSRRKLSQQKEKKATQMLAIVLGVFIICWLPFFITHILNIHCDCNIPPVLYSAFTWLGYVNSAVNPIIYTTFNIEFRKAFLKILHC

The target of the assay is D(2) dopamine receptor (Homo sapiens) (UniProt P14416). Briefly: qHTS of D3 Dopamine Receptor Agonist: D2 Dopamine Receptor B-arrestin Agonist Counterscreen. Also: nearly all actives have a fitted effect of over 70% in size. As to activation: % of control where 0% means no effect. The note with it: DiscoveRx PathHunter D2 beta-arrestin, luminescence, 90 min; series mostly up to 76.9 µM; activation: at the top concentration. An excerpt:
D3 DARs represent a very important target for the treatment of several neuropsychiatric disorders. Indeed, one of the most promising therapeutic applications for the D3 DAR is in the area of addiction and related disorders. […] These findings have been observed with a number of addictive substances including cocaine, amphetamine, nicotine, and alcohol. […] Increased D3 DAR activity can thus lead to neuroprotective and neurorestorative actions in the CNS. […] This assay is used to profile the activity of the identified D3 dopamine receptor agonist against the D2 dopamine receptor. Greater than 10% of the maximum dopamine agonist response is desired for this assay. NIH Molecular Libraries Probe Production Centers Network [MLPCN] NIH Chemical Genomics Center [NCGC] MLPCN Grant: NS064831 Assay Submitter (PI): David Sibley
DiscoveRx D2 cells were thawed from frozen stock and seeded at 2,100 cells/ 3 uL/well media (DiscoveRx Plating Reagent 2) with MultiDrop Combi dispenser (Thermo Scientific, Logan, UT) onto white tissue culture treated 1536-well Aurora plates (Brooks Automation, Chelmsford, MA) and allowed to attach overnight at 37 deg C, 5% CO2. Next, 23 nL/well of compound solutions in DMSO were added with a pintool transfer (Kalypsis, San Diego, CA). […] The rest of the plate was dispensed with buffer only, 1 uL/well as well. The cells were stimulated by compounds or dopamine control for 90 minutes at 37 deg C, 5% CO2, after which 1.5 ul/well of DiscoveRx detection reagent was added with BioRAPTR FRD dispenser. The detection reagent was prepared by mixing of Galacton Star Substrate, Emerald II solution and PathHunter buffer (supplied by the assay kit) together at 1:5:19 proportion accordingly just prior to dispensing. The plates were incubated at ambient temperature for 1 hour and then the luminescent signal was read on ViewLux plate reader (PerkinElmer, Waltham, MA).
On to `N#C/C(N)=C(/N)C#N`, for which the “activation” value is inactive: -5.21%. As to `NCC(O)c1cc(O)c(O)cc1F` (stereo not drawn), the Potency was active: 12.6 µM. On to `COC(=O)C1=C(c2ccc(-c3ccccc3)c(F)c2)C[C@@H]2CC[C@H]1N2C(=O)NCc1ccc(F)cc1`, for which the “activation” value is inactive: 1.89%.

These data come from PubChem BioAssay AID720507 (National Center for Advancing Translational Sciences (NCATS), 2013).
